# Laboratory results reported in the supplement of paper PMC4635364.
# Some of the results follow. Single values are uncertain here, since repeats match poorly.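 Cells: ReNCell VM human fetal ventral-midbrain neural progenitors, differentiated mitogen-free. Blinded raters compared doublecortin-stained (early neurons) or tyrosine hydroxylase-stained (dopaminergic neurons) images with untreated wells, where 0 means no change. After repeats and both raters were averaged, compounds scoring 2 or above became hits for retesting.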
# Tested on: ReNCell VM
# Assay: dopaminergic neuron differentiation score (TH+ cell fraction vs untreated, manual image score) (score (0 to 3)); higher = more TH+ dopaminergic neuron differentiation
# Details: library: Spectrum; 2 uM; 4 weeks; BDNF 10 ng/ml + GDNF 10 ng/ml
row,SMILES,dopaminergic neuron differentiation score
1,OC[C@H]1O[C@@H](O[C@H]2[C@H](O)[C@@H](O)[C@@H](O)O[C@@H]2CO)[C@H](O)[C@@H](O)[C@@H]1O,inactive: 0
2,N[C@@H](CSCSC[C@H](N)C(=O)O)C(=O)O,inactive: 0
3,CCc1ccc2c(O)c3c(cc2c1C(=O)OC)C(=O)c1c(O)ccc(O)c1C3=O,inactive: 0
4,C[C@@H]1CC[C@@]2(OC1)O[C@H]1C[C@H]3[C@@H]4CC[C@H]5C[C@@H](O)CC[C@]5(C)[C@H]4CC[C@]3(C)[C@H]1[C@@H]2C,inactive: 0
5,COC(=O)C(OC)=C(OC)c1ccccc1OC,inactive: 0
6,CO[C@H]1[C@H](O)[C@@H](O)[C@H](O)[C@H](O)[C@H]1O,inactive: 0
7,CC[n+]1c(-c2ccccc2)c2cc(N)ccc2c2ccc(N)cc21,inactive: 0
8,N[C@@H](C(=O)N[C@@H]1C(=O)N2C(C(=O)O)=C(Cl)CS[C@H]12)c1ccccc1,inactive: 1
9,CN1CCN(CC(=O)N2c3ccccc3C(=O)Nc3cccnc32)CC1,inactive: 0
10,Clc1ccc(COC(Cn2ccnc2)c2ccc(Cl)cc2Cl)c(Cl)c1 (centres undefined),inactive: 0
11,C[C@@H]1CC[C@@]2(OC1)O[C@H]1C[C@H]3[C@@H]4CC[C@@H]5C[C@@H](O)CC[C@]5(C)[C@H]4CC[C@]3(C)[C@H]1[C@@H]2C,inactive: 0
12,COc1cc(OC)c(-c2c(OC)cc(OC)cc2OC)c(OC)c1,inactive: 0
13,Clc1ccccc1CN1CCc2sccc2C1,inactive: 0
14,NNC(=O)c1ccncc1,inactive: 0
15,N[C@@H](CCC(=O)N[C@@H](CS)C(=O)NCC(=O)O)C(=O)O,inactive: 0
16,CN1CCCN=C1/C=C/c1cccs1,inactive: 0
17,CC(=O)Nc1nnc(S(N)(=O)=O)s1,inactive: 0
18,CC(=O)O[C@]1(C)CC[C@@]23C[C@H]1C(C)(C)[C@@H]2CC[C@H]3C,inactive: 0
19,CC1(C)O[C@H]2CC(=O)OC[C@]23[C@H]2CC[C@@]4(C)[C@H](c5ccoc5)OC(=O)[C@H]5O[C@]54[C@]2(C)C(=O)C[C@@H]13,inactive: 0
20,COC(=O)c1c(C)cc(O)cc1O,inactive: 0

# Single entries from the entries so far:
# CCc1ccc2c(O)c3c(cc2c1C(=O)OC)C(=O)c1c(O)ccc(O)c1C3=O | dopaminergic neuron differentiation score: inactive: 0
# CN1CCN(CC(=O)N2c3ccccc3C(=O)Nc3cccnc32)CC1 | dopaminergic neuron differentiation score: inactive: 0

# Same assay, conditions: library: Tocriscreen; 2 uM; 4 weeks; BDNF 10 ng/ml + GDNF 10 ng/ml
row,SMILES,dopaminergic neuron differentiation score
1,NS(=O)(=O)c1cccc2c1c([N+](=O)[O-])cc1nc(O)c(O)nc12,inactive: 0
2,O=[N+]([O-])c1cccc2c[nH]nc12,active: 3
3,CCC(=O)NC[C@H](Cc1ccc(OCCc2nc(-c3ccccc3)oc2C)cc1)N/C(C)=C\C(=O)c1ccc(C(F)(F)F)cc1,inactive: 0
4,Cc1ccc(/C=C2\CNC/C(=C\c3ccc(C)cc3)C2=O)cc1,inactive: 0
